Like-named read-outs stand apart in the source and are kept apart here. Results are given in words; binding and its absence hold for the method and conditions named. In cells and extracts the contact can be indirect. Here binding means that the protein was enriched with, or labelled near, the bait; the list need not be complete. Values belong to the molecule of their own block, whether it stands above or below them.
Legend:
[1] = target: T1, Gpl1-TAP (S. pombe) (UniProt Q9HE07); experiment: affinity purification with mass spectrometry; tandem affinity purification of TAP-tagged bait from extracts of cycling S. pombe cells (IPP150 buffer: 50 mM Tris pH 8.0, 150 mM NaCl, 10% glycerol, 0.1% NP-40); IgG Sepharose, TEV cleavage, Calmodulin Sepharose, EGTA elution; eluates analysed by LC-MS/MS
T1 sequence: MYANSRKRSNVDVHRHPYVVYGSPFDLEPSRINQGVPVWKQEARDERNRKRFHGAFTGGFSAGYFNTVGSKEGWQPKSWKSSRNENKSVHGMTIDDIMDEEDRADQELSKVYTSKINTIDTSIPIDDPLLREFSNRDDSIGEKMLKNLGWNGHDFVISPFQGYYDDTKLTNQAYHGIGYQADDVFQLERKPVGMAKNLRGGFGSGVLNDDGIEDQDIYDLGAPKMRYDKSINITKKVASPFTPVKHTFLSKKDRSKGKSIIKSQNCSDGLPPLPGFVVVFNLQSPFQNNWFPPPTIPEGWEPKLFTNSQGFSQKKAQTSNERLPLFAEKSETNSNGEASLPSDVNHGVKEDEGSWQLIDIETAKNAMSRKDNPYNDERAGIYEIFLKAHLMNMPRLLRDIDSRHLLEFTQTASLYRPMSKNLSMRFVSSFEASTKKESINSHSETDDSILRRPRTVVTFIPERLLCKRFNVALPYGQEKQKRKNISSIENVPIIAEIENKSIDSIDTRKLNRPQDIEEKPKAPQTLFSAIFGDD

[2] = target: T1, Gpl1-TAP (S. pombe); experiment: as above; remark: listed apart in the source

binding [1]: binds
Molecule: Nrl1 (NRDE-2 like 1) (S. pombe (endogenous in S. pombe cells))

binding [2]: binds
B1: SPAC20H4.09 (protein, UniProt Q9HE06 1-647)
chain: MPNEFISQSLSTLTNTPLNIQKKLLPITKYRNQLLYAVEQNQITIVLGHTGCGKTTQIPQFLYEAGWASQNGIIGCTQPRRLVAKSVSERVSLELNSPPGSLCGYSIQFDHNVSEKTKIKYMTDGILLNEIFFDPLLERYSIVILDEVHERTLSTDLLLGVLKRILEKRNDFRLVLSSASVDANKLSQFFGQDKVCTMSIEGKLFPVETLFLQKPTENYVDSAIETVININSTYPPGDILVFLSGRKEIEYCIKKIEDSLIHASEDCQTLVPLPLHAGLTVDEQMRVFNIYDGDFRKVIFSTNIAETSITIDGIVYVVDSGFNKQRIYNPYTRTSKLINVPISKSSAIQRSGRAGRTMRGKVFRLYTEKAYSLMKEEFEADILNCDMSPLVLFLKGLGLKNILQFPFFVRPPTVHLMAALEDLYLLGVLDESGNLTDPLGIQISNSFLDANISKALLTSNQFGCTHEILSIASILTAGEVFYNPTSSSKNDAFVAHSSFFANEGDIITALNVFESFVGNKKDLQWCRKNYLNYQTLRQALDIRTHLVRFLNKFSIPTAQRLPSSDCSKILKCLLDGFVRNVAHLQNDGSYKTIGGKQVWLDSSSVLHEKKTPWIMYSSAVESETQIFVKNISKIESFWLDKYYKREK
